From PMC5999396
These are yes or no findings as the source states them, for the method shown. Binding seen in cells or lysates may run through a third protein. Some entries that bind do so weakly or less than the wild type.

Sequences of proteins named here, by UniProt entry; tags and fusion partners are left off. A change or cut given only in a name is not applied to a line headed by its entry.
UniProt P04608: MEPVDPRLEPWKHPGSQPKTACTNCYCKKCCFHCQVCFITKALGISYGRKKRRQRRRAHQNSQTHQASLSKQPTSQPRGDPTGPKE
UniProt O94992: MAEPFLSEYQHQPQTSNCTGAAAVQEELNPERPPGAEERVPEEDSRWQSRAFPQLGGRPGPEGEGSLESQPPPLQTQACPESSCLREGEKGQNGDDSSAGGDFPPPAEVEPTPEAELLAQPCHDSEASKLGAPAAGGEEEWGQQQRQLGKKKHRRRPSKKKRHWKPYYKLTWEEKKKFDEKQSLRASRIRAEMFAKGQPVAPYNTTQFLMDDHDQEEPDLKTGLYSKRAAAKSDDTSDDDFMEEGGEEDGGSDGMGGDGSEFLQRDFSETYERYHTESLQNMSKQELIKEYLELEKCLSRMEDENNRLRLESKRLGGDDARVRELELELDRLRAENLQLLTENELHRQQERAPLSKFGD
UniProt O60563: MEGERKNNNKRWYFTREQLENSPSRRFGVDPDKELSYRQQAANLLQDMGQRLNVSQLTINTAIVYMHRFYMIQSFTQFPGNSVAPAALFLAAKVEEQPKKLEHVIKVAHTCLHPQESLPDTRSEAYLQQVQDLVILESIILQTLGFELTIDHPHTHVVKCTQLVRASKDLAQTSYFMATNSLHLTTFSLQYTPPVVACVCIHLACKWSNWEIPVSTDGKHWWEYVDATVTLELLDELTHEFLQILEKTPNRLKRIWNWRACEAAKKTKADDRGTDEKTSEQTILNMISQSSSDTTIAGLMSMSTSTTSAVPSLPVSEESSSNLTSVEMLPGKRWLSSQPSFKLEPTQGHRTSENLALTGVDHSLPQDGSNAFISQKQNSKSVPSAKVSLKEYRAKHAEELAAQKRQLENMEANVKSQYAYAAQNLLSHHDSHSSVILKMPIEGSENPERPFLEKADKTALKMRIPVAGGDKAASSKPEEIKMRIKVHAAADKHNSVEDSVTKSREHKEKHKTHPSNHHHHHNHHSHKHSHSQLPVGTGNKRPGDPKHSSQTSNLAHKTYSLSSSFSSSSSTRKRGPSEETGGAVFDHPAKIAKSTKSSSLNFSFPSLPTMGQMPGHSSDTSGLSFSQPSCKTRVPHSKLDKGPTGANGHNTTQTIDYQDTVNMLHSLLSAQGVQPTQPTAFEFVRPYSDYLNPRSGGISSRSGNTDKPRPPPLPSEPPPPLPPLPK
UniProt Q9C0C9: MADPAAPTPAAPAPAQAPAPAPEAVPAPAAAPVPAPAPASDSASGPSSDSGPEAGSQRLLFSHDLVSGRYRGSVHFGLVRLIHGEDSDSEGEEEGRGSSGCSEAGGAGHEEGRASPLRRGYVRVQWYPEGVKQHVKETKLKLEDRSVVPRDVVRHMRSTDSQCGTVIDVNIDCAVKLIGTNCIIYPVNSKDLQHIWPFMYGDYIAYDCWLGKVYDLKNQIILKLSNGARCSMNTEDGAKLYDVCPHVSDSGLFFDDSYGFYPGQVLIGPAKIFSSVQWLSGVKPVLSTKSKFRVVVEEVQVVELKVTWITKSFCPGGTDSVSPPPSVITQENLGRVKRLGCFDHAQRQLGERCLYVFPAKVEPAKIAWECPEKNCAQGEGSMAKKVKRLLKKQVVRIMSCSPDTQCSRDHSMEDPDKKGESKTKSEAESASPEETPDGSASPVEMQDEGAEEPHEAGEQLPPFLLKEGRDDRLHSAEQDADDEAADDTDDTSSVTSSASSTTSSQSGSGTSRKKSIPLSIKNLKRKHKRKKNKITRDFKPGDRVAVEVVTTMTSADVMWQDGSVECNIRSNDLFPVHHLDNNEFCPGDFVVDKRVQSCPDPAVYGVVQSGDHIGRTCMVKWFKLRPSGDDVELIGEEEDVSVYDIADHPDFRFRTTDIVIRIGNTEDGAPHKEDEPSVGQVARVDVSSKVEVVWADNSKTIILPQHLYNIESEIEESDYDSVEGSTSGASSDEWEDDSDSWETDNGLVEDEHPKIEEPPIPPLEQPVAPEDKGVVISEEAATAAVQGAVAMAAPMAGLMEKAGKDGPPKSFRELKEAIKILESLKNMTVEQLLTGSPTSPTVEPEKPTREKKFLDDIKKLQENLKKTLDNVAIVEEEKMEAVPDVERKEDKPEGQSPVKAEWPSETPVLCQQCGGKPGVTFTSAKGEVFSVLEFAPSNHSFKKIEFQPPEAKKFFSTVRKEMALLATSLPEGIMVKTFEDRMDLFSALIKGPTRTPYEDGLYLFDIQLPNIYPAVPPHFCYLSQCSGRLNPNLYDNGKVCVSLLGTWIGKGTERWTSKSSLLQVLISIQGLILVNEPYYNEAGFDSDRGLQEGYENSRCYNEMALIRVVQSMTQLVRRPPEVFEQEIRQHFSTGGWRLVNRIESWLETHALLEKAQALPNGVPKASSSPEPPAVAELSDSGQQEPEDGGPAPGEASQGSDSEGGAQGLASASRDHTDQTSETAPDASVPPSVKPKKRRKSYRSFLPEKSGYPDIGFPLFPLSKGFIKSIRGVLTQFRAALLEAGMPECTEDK

How the values were obtained:
[1] = molecular target: T1, LARP7-STREP (UniProt Q4G0J3); assay: co-IP; STREP-tagged bait transfected in HEK 293T or HeLa; lysate on Streptactin Superflow resin at 4 C; wash 50 mM Tris-HCl pH 8.0, 150 mM NaCl, 2 mM MgCl2, 0.5% Triton X-100; endogenous preys by western blot; with or without Tat co-transfection; with 100 uM DRB or DMSO for 1 hr before lysis
T1 sequence: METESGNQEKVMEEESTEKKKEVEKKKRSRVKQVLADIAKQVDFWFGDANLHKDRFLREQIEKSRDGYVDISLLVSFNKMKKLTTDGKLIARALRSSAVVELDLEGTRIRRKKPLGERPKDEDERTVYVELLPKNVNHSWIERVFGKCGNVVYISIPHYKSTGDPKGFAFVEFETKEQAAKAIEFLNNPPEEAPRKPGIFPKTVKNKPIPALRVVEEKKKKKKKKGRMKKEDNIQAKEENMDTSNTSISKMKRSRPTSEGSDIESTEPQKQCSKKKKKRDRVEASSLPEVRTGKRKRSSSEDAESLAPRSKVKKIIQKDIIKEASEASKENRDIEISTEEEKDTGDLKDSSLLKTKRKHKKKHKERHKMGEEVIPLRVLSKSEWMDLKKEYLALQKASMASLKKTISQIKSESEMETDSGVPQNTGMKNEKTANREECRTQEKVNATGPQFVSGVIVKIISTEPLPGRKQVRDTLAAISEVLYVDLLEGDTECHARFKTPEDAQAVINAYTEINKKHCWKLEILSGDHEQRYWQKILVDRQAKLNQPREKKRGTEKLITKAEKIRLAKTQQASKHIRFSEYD

[2] = molecular target: HIV-1 HXB2 Tat-STREP (HIV-1 HXB2) (UniProt P04608); assay: as above
[3] = molecular target: HIV-1 HXB2 Tat-STREP (HIV-1 HXB2) (UniProt P04608); assay: co-IP; tandem affinity purification from HEK 293T transfected with Tat-STREP and UBE2O-FLAG: STREP IP, then the elution on FLAG-M2 resin overnight at 4 C; endogenous HEXIM1 by western blot

Substance | binding [1] | binding [2] | binding [3]
HEXIM1 (endogenous) (from UniProt O94992 1-359) | binds | binds | binds
P-TEFb (endogenous; cyclin T1 and CDK9) (from UniProt O60563 1-726; P50750 1-372) (complex) | – | binds | –
UBE2O-FLAG (from UniProt Q9C0C9 1-1292) (enzyme) | – | – | binds
